Reference: PubChem BioAssay AID330 (DTP/NCI, 2004)
The list shows only some results of the screen, not a fair sample: it is rich in T/C values a quarter to a half above the control, in often repeated tests (any T/C) and in doses without a T/C. Other doses and runs of a compound stand elsewhere. T/C: endpoint of the treated group in % of that of the vehicle group. Some entries give survivors of the animals treated and no T/C: the source holds a T/C of zero for them, seemingly a mark for toxic or unscored doses. Some survivor counts are full or nearly so, which does not show that the dose was tolerated: survival well below the control is almost never listed, so the zero probably covers shortened survival too. Counts of survivors are from the toxicity check (mostly the fifth day) where no day follows; animals may have died later. Schedule codes are those of the source, taken here to give the interval after Q, in days (D) or hours (H), and the number of doses after X. Some entries hold several experiments; the values are given in rising order. Where survival is the endpoint, the PubChem record calls one and a half times the control and up active, and a quarter to a half above the control has no call in these data; cut-offs in other NCI protocols can differ. Some T/C values carry the count of animals alive at the toxicity check (mostly the fifth day); without a count, all were alive then.

System: P388 leukemia ip, CD2F1 mice, survival T/C
Assay: NCI In Vivo Anticancer Drug Screen. Data for tumor model P388 Leukemia (intraperitoneal) in CD2F1 (CDF1) mice
Conditions: T/C endpoint: median survival time, higher T/C = longer survival
[1] = dose: 60.0 mg/kg/injection, schedule: Q01DX005 (ip), vehicle: saline with Tween-80
[2] = dose: 120.0 mg/kg/injection, schedule: Q01DX005 (ip), vehicle: saline with Tween-80
[3] = dose: 240.0 mg/kg/injection, schedule: Q01DX005 (ip), vehicle: saline with Tween-80
[4] = dose: 200.0 mg/kg/injection, schedule: Q01DX005 (ip), vehicle: saline with Tween-80
[5] = dose: 200.0 mg/kg/injection, schedule: Q01DX009 (ip), vehicle: saline
[6] = dose: 400.0 mg/kg/injection, schedule: Q04DX002 (ip), vehicle: saline with Tween-80
[7] = dose: 12.5 mg/kg/injection, schedule: Q01DX005 (ip), vehicle: Klucel (hydroxypropylcellulose) (HPC)

For `CC(=O)O[C@@H]1C(=O)C=C(C)[C@@H]2[C@@H](OC(=O)C=C(C)C)[C@H]3OC(=O)C[C@H]4[C@@H](C)[C@@H](O)[C@]5(O)OC[C@]34[C@H]5[C@@]12C`, the T/C (dose: 1.25 mg/kg/injection, schedule: Q01DX009 (ip), vehicle: distilled water + Tween-80) was 145 % of control, the T/C (dose: 2.0 mg/kg/injection, schedule: Q01DX009 (ip), vehicle: distilled water + Tween-80) was 132 % of control and the T/C (dose: 2.5 mg/kg/injection, schedule: Q01DX009 (ip), vehicle: distilled water + Tween-80) was 135 % of control. For the same molecule, the T/C (dose: 4.0 mg/kg/injection, schedule: Q01DX009 (ip), vehicle: distilled water + Tween-80) was 142 % of control, the T/C (dose: 5.0 mg/kg/injection, schedule: Q01DX009 (ip), vehicle: distilled water + Tween-80) was 138 % of control [5 of 6 alive] and the T/C (dose: 8.0 mg/kg/injection, schedule: Q01DX009 (ip), vehicle: distilled water + Tween-80) was 142 % of control.

For `N#CC(=O)Nc1cccc(Cl)c1`, the survivor count [1] was 0 of 6, the survivor count [2] was 0 of 6 and the survivor count [3] was 0 of 6.

In the case of `CC(=O)OCC1OC(n2cc(F)c(=O)[nH]c2=O)CC1OC(C)=O` (stereo not given), the survivor count (dose: 400.0 mg/kg/injection, schedule: Q01DX009 (ip), vehicle: saline with Tween-80) is reported as 6 of 6.

With `Cc1cc(NCCCCN2CCOCC2)nc2ccc3ccccc3c12` the survivor count [4] was 0 of 5.

`CNC(=O)n1cc(Cl)ccc1=O` was tested, and the survivor count [5] was 3 of 6 and the survivor count (dose: 400.0 mg/kg/injection, schedule: Q01DX009 (ip), vehicle: saline) was 1 of 6 and 3 of 6.

`NNC(=O)CCC(=O)NN` was tested, and the survivor count (dose: 400.0 mg/kg/injection, schedule: Q04DX002 (ip), vehicle: saline) was 0 of 6.

For `CCOC(=O)N1C=CC(=C2C(=C3C=CN(C(=O)OCC)C=C3)C(=C3C=CN(C(=O)OCC)C=C3)C2=C2C=CN(C(=O)OCC)C=C2)C=C1`, the T/C [4] was 134 % of control, the survivor count [4] was 0 of 6 and the survivor count (dose: 400.0 mg/kg/injection, schedule: Q01DX005 (ip), vehicle: saline with Tween-80) was 0 of 6.

With `Nc1nc(N)c2c(Cl)c(CNc3ccc(Cl)c(Cl)c3)ccc2n1` the T/C (dose: 3.0 mg/kg/injection, schedule: Q01DX009 (ip), vehicle: saline with Tween-80) was 127 % of control.

`COc1c(C#N)c2c(c(OC)c1OC)-c1ccc(OC)c(=O)cc1[C@@H](NC(C)=O)CC2` was tested, and the T/C (dose: 6.25 mg/kg/injection, schedule: Q01DX009 (ip), vehicle: Klucel (hydroxypropylcellulose) (HPC)) was 127 % of control, the T/C (dose: 12.5 mg/kg/injection, schedule: Q01DX009 (ip), vehicle: Klucel (hydroxypropylcellulose) (HPC)) was 142 % of control and the survivor count (dose: 25.0 mg/kg/injection, schedule: Q01DX009 (ip), vehicle: Klucel (hydroxypropylcellulose) (HPC)) was 5 of 6. For the same molecule, the survivor count (dose: 50.0 mg/kg/injection, schedule: Q01DX009 (ip), vehicle: Klucel (hydroxypropylcellulose) (HPC)) was 2 of 6.

With `OCCOCCN1CCN(C(c2ccccc2)c2ccccc2)CC1` the survivor count [5] was 1 of 6.

In the case of `CC(CO)NC(=O)C1C=C2c3cccc4[nH]cc(c34)CC2N(C)C1` (stereo not given), the survivor count (dose: 36.0 mg/kg/injection, schedule: Q01DX009 (ip), vehicle: saline) is reported as 6 of 6.

For `CN(C)CCCSc1c2ccccc2nc2cccc([N+](=O)[O-])c12`, the survivor count [3] was 6 of 6.

`CCN(CC)CCNc1ccc(C)c2oc3ccc(O)cc3c(=O)c12` was tested, and the survivor count (dose: 100.0 mg/kg/injection, schedule: Q01DX005 (ip), vehicle: distilled water + Tween-80) was 2 of 5 and the survivor count (dose: 200.0 mg/kg/injection, schedule: Q01DX005 (ip), vehicle: distilled water + Tween-80) was 0 of 5.

In the case of `C/C=C1\C[C@@H]2C(OC)Nc3cc(O)c(OC)cc3C(=O)N2C1` (stereo not given in full), the T/C (dose: 0.04 mg/kg/injection, schedule: Q04DX003 (ip), vehicle: other) is reported as 133 % of control, the T/C (dose: 0.07 mg/kg/injection, schedule: Q04DX003 (ip), vehicle: other) is reported as 148 % of control and the survivor count (dose: 1.0 mg/kg/injection, schedule: Q04DX003 (ip), vehicle: other) is reported as 1 of 6. The survivor count (dose: 2.0 mg/kg/injection, schedule: Q04DX003 (ip), vehicle: other) was 1 of 6, the survivor count (dose: 3.0 mg/kg/injection, schedule: Q04DX003 (ip), vehicle: other) was 0 of 6 and the survivor count (dose: 4.0 mg/kg/injection, schedule: Q04DX003 (ip), vehicle: other) was 0 of 6. The survivor count (dose: 10.0 mg/kg/injection, schedule: Q04DX003 (ip), vehicle: other) was 0 of 6, the T/C (dose: 30.0 micrograms/kg/injection, schedule: Q01DX009 (ip), vehicle: other) was 138 % of control and the survivor count (dose: 1000.0 micrograms/kg/injection, schedule: Q01DX009 (ip), vehicle: other) was 1 of 6.

In the case of `NS(=O)(=O)c1ccc(CN2C(=O)c3ccccc3C2=O)cc1`, the survivor count (dose: 200.0 mg/kg/injection, schedule: Q04DX002 (ip), vehicle: saline with Tween-80) is reported as 0 of 6 and the survivor count [6] is reported as 0 of 6.

With `O=C(O)CS(=O)NN(c1ccccc1)c1ccccc1` (stereo not given) the survivor count [6] was 5 of 6.

With `CC(C)CCCCCCCCCCCCC(=O)NCCC(=O)NC1C(CO)OC(Nc2ncnc3nc[nH]c23)C(O)C1O` (stereo not given) the T/C (dose: 3.12 mg/kg/injection, schedule: Q01DX009 (ip), vehicle: other) was 131 % of control, the T/C (dose: 3.13 mg/kg/injection, schedule: Q01DX009 (ip), vehicle: other) was 127 % of control and the survivor count (dose: 12.5 mg/kg/injection, schedule: Q01DX009 (ip), vehicle: other) was 6 of 6. The survivor count (dose: 25.0 mg/kg/injection, schedule: Q01DX009 (ip), vehicle: other) was 6 of 6 and the survivor count (dose: 50.0 mg/kg/injection, schedule: Q01DX009 (ip), vehicle: other) was 5 of 6.

In the case of `Nc1cc2cccc[n+]2c2ccccc12`, the survivor count (dose: 60.0 mg/kg/injection, schedule: Q01DX005 (ip), vehicle: saline) is reported as 0 of 6, the survivor count (dose: 120.0 mg/kg/injection, schedule: Q01DX005 (ip), vehicle: saline) is reported as 0 of 6 and the survivor count (dose: 240.0 mg/kg/injection, schedule: Q01DX005 (ip), vehicle: saline) is reported as 0 of 6.

`COc1ccc(Br)cc1/C=C/[N+](=O)[O-]` was tested, and the survivor count (dose: 50.0 mg/kg/injection, schedule: Q01DX009 (ip), vehicle: saline with Tween-80) was 1 of 6.

For `CCC12C[N+]3([O-])CCc4c([nH]c5ccccc45)C(C(=O)OC)(c4cc5c(cc4OC)N(C)C4C(O)(C(=O)OC)C(OC(C)=O)C6(CC)C=CCN7CCC54C76)CC(C3)C1O2` (stereo not given), the T/C (dose: 1.0 mg/kg/injection, schedule: Q01DX001 (ip), vehicle: distilled water + Tween-80) was 128 % of control, the T/C (dose: 2.0 mg/kg/injection, schedule: Q01DX001 (ip), vehicle: distilled water + Tween-80) was 130 % of control and the T/C (dose: 4.0 mg/kg/injection, schedule: Q01DX001 (ip), vehicle: distilled water + Tween-80) was 142 % of control. For the same molecule, the T/C (dose: 4.0 mg/kg/injection, schedule: Q01DX001 (ip), vehicle: water) was 130 % of control, the T/C (dose: 16.0 mg/kg/injection, schedule: Q01DX001 (ip), vehicle: water) was 134 % of control and the T/C (dose: 32.0 mg/kg/injection, schedule: Q01DX001 (ip), vehicle: distilled water + Tween-80) was 140 % of control.

In the case of `COc1ccc2c(c1)N=C(NNC1=Nc3cc(OC)ccc3SC1)CS2`, the survivor count [1] is reported as 6 of 6, the survivor count [2] is reported as 6 of 6 and the survivor count [3] is reported as 6 of 6.

In the case of `C[CH2][Sn]([CH2]C)([S]c1nc(O)cc(=O)[nH]1)[S]c1nc(O)cc(=O)[nH]1`, the T/C (dose: 6.25 mg/kg/injection, schedule: Q01DX005 (ip), vehicle: Klucel (hydroxypropylcellulose) (HPC)) is reported as 138 % of control [5 of 6 alive], the T/C [7] is reported as 125 % of control and the survivor count [7] is reported as 3 of 6. For the same molecule, the survivor count (dose: 50.0 mg/kg/injection, schedule: Q01DX005 (ip), vehicle: Klucel (hydroxypropylcellulose) (HPC)) was 0 of 6, the survivor count (dose: 100.0 mg/kg/injection, schedule: Q01DX005 (ip), vehicle: Klucel (hydroxypropylcellulose) (HPC)) was 0 of 6 and the survivor count (dose: 200.0 mg/kg/injection, schedule: Q01DX005 (ip), vehicle: Klucel (hydroxypropylcellulose) (HPC)) was 0 of 6.

With `O=C(O)/C(Cl)=C(\Cl)C(=O)Nc1ccc(Br)cc1` the survivor count [3] was 1 of 6.

For `CCCCc1ccc(C)c(O)c1`, the survivor count (dose: 200.0 mg/kg/injection, schedule: Q01DX009 (ip), vehicle: saline with Tween-80) was 3 of 6.
